For at least one compound, name, drawing or mass did not settle the structure.
Experiments:
human blood = test: Partial thromboplastin time (PTT) in fresh citrated human blood; format: biochemical; conditions: control 30.5 sec.
LPL = test: Plasma LPL levels in rats after oral administration; format: in vivo; conditions: 1 ml of 10%-20% solution
[1] = Minimum concentration that significantly prolongs APTT versus standard buffer solution; format: biochemical; conditions: concentration at which the polymeric components of the dye significantly prolonged APTT versus standard buffer solution
normal pooled plasma = test: Activated partial thromboplastin time (APTT) in normal pooled plasma; format: biochemical; conditions: Concentration 0.2 mg/mL; normal pooled plasma alone 25 - 28 sec.
Procedure: Measurement of Activated Partial Thromboplastin Time (APTT)
Utilizing the following procedure, the activated partial thromboplastin time (APTT) was measured for each of comparative compounds A-D:
To an assay cuvette was added 100 ul of normal pooled plasma (George King Biomedical Inc., Kansas) and 100 ul of a solution containing one of the above compounds in aqueous 50 mM Tris hydrochloride at pH 7.5 (0.2 mg of sample in one mL buffer). The sample was placed in a MLA coagulation timer which automatically maintained the sample at 37°C for 2.5 minutes, injected 100 ul of actin activated cephaloplastin reagent, kept 5 minutes, injected 100 ul of 3 mM CaCl, and the clot formation was determined photometrically and the time recorded.

SMILES: O=C(O)C1=CC(=C(c2ccc(O)c(C(=O)O)c2)c2ccc(O)c(C(=O)O)c2)C=CC1=O [Aluminon, aurintricarboxylic acid]
- PTT (human blood; Aluminon final conc. 0.01 mg/ml): 30.5 s
- PTT (human blood; Aluminon final conc. 0.1 mg/ml): 190 s
- PTT (human blood; Aluminon final conc. 1 mg/ml): >300 s
- plasma levels of LPL (LPL): elevated by about an order of magnitude

SMILES: CCN(CC)c1ccc(C(=C2C=CC(=[N+](CC)CC)C=C2)c2ccccc2)cc1 [Brilliant Green]
- Minimum Final Concentration [1]: 150.0 µg/mL

SMILES: O=C(O)C1=CC(=C(c2ccc(O)c(C(=O)O)c2)c2ccc(O)c(C(=O)O)c2)C=CC1=O [Comparative Compound A, aurin tricarboxylic acid]
- APTT (normal pooled plasma): 40 to 60 s
